Values from PubChem BioAssay AID686938 (Drosophila RNAi Screening Center, 2013).
The deposit covers about 23,000 reagents; shown is a random part of those with a known target gene and a result. Over the whole deposit, 75 (0.33%) are marked active. 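Raw plate signals without normalisation; calls rest on plate z-scores that were not deposited; ratio present for only 364 wells.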 A number with no mark means an inactive call. Not stated in the record: the dose of the treatment.

- Purpose: 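Fly genes required for calcium entry once internal stores are emptied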 (primary screen)
- System: Drosophila S2R+ cells
- Reagents: long dsRNA against Drosophila genes, about 0.25 µg dsRNA per well, roughly 10,000 cells
- Time to read-out: 5 days of knock-down before the calcium assay
- Challenge: thapsigargin (SERCA pump blocker) to empty calcium stores; entry signal taken 4 min after adding it
- Detection: 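Duplicate raw fluo-4 intensities per well from a plate reader, at rest and four minutes after thapsigargin emptied calcium stores; entry-to-rest ratio filled for only some wells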
- Scale: calcium entry signal: higher = stronger calcium signal after store depletion; entry to resting ratio: higher = more calcium entry relative to resting level; resting calcium signal: higher = higher resting calcium signal
- Units: calcium entry signal in fluorescence units; resting calcium signal in fluorescence units
- Rule for the call: 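Hit if the duplicate-averaged plate z-score for entry over resting signal is under −3; wells with weak total dye signal (Fmax z < −2) or more than 5 off-targets removed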
- Meaning of the calls: active = strongly reduced calcium entry; inactive = no strong reduction

CG14294 [DRSC14774]
- calcium entry signal, replicate 1: 2.36e7
- calcium entry signal, replicate 2: 3.36e7
- resting calcium signal, replicate 1: 3.25e7
- resting calcium signal, replicate 2: 1.41e7

CG33107 [DRSC21898]
- calcium entry signal, replicate 1: 3.10e7
- calcium entry signal, replicate 2: 3.74e7
- resting calcium signal, replicate 1: 1.47e7
- resting calcium signal, replicate 2: 1.99e7

CG5727 [DRSC02882]
- calcium entry signal, replicate 1: 5.18e7
- resting calcium signal, replicate 1: 2.60e7

CG15514 [DRSC15053]
- calcium entry signal, replicate 1: 3.84e7
- calcium entry signal, replicate 2: 4.72e7
- resting calcium signal, replicate 1: 1.86e7
- resting calcium signal, replicate 2: 2.28e7

CG33281 [DRSC00421]
- calcium entry signal, replicate 1: 2.59e7
- calcium entry signal, replicate 2: 2.87e7
- resting calcium signal, replicate 1: 1.34e7
- resting calcium signal, replicate 2: 1.47e7

SLC5A11 (Sodium/solute co-transporter-like 5A11) [DRSC03088]
- calcium entry signal, replicate 1: 5.27e7
- resting calcium signal, replicate 1: 3.12e7

Nin (Ninein) [DRSC02007]
- calcium entry signal, replicate 1: 5.01e7
- resting calcium signal, replicate 1: 1.81e7

BRWD3 [DRSC15369]
- calcium entry signal, replicate 1: 4.45e7
- calcium entry signal, replicate 2: 2.78e7
- resting calcium signal, replicate 1: 2.24e7
- resting calcium signal, replicate 2: 1.43e7

BRWD3 [DRSC16032]
- calcium entry signal, replicate 1: 3.23e7
- calcium entry signal, replicate 2: 3.91e7
- resting calcium signal, replicate 1: 1.78e7
- resting calcium signal, replicate 2: 1.53e7

kek2 (kekkon 2) [DRSC03552]
- calcium entry signal, replicate 1: 3.96e7
- calcium entry signal, replicate 2: 4.61e7
- resting calcium signal, replicate 1: 1.83e7
- resting calcium signal, replicate 2: 1.91e7

Cisd2 (CDGSH iron sulfur domain 2) [DRSC14904]
- calcium entry signal, replicate 1: 3.63e7
- calcium entry signal, replicate 2: 4.85e7
- resting calcium signal, replicate 1: 1.75e7
- resting calcium signal, replicate 2: 2.00e7

ORMDL (Orosomucoid 1-like) [DRSC11737]
- calcium entry signal, replicate 1: 3.12e7
- calcium entry signal, replicate 2: 5.75e7
- resting calcium signal, replicate 1: 1.51e7
- resting calcium signal, replicate 2: 2.30e7

Bin1 (Bicoid interacting protein 1) [DRSC16843]
- calcium entry signal, replicate 1: 3.28e7
- calcium entry signal, replicate 2: 5.29e7
- resting calcium signal, replicate 1: 1.61e7
- resting calcium signal, replicate 2: 7.09e7

CG3502 [DRSC04381]
- calcium entry signal, replicate 1: 4.39e7
- resting calcium signal, replicate 1: 2.23e7

Reprinted from above for reference:
SLC5A11 (Sodium/solute co-transporter-like 5A11) [DRSC03088]
- calcium entry signal, replicate 1: 5.27e7
- resting calcium signal, replicate 1: 3.12e7

Nin (Ninein) [DRSC02007]
- calcium entry signal, replicate 1: 5.01e7
- resting calcium signal, replicate 1: 1.81e7

Next records:
Usp5 (Ubiquitin specific protease 5) [DRSC08244]
- calcium entry signal, replicate 1: 3.34e7
- calcium entry signal, replicate 2: 3.57e7
- resting calcium signal, replicate 1: 1.88e7
- resting calcium signal, replicate 2: 1.86e7

CG7430 [DRSC10845]
- calcium entry signal, replicate 1: 3.76e7
- calcium entry signal, replicate 2: 3.97e7
- resting calcium signal, replicate 1: 1.73e7
- resting calcium signal, replicate 2: 2.76e7

CG9451 [DRSC11074]
- calcium entry signal, replicate 1: 2.99e7
- calcium entry signal, replicate 2: 4.39e7
- resting calcium signal, replicate 1: 1.40e7
- resting calcium signal, replicate 2: 1.80e7

RabX2 [DRSC18234]
- calcium entry signal, replicate 1: 1.94e7
- calcium entry signal, replicate 2: 4.92e7
- resting calcium signal, replicate 1: 9.79e6
- resting calcium signal, replicate 2: 2.69e7

stil (stand still) [DRSC07699]
- calcium entry signal, replicate 1: 3.57e7
- calcium entry signal, replicate 2: 4.90e7
- resting calcium signal, replicate 1: 1.55e7
- resting calcium signal, replicate 2: 2.09e7

Loxl1 (Lysyl oxidase-like 1) [DRSC14303]
- calcium entry signal, replicate 1: 3.43e7
- calcium entry signal, replicate 2: 3.90e7
- entry to resting ratio: 2.1
- resting calcium signal, replicate 1: 1.61e7
- resting calcium signal, replicate 2: 1.63e7

lncRNA:CR32835 (long non-coding RNA:CR32835) [DRSC22693]
- calcium entry signal, replicate 1: 3.03e7
- calcium entry signal, replicate 2: 4.19e7
- resting calcium signal, replicate 1: 1.60e7
- resting calcium signal, replicate 2: 1.74e7
